Data: publication PMC7721366
These are yes or no findings as the source states them, for the method shown. Binding seen in cells or lysates may run through a third protein. Some entries that bind do so weakly or less than the wild type.

Amino acid sequences for entries named in this document (tags omitted).
UniProt Q92793: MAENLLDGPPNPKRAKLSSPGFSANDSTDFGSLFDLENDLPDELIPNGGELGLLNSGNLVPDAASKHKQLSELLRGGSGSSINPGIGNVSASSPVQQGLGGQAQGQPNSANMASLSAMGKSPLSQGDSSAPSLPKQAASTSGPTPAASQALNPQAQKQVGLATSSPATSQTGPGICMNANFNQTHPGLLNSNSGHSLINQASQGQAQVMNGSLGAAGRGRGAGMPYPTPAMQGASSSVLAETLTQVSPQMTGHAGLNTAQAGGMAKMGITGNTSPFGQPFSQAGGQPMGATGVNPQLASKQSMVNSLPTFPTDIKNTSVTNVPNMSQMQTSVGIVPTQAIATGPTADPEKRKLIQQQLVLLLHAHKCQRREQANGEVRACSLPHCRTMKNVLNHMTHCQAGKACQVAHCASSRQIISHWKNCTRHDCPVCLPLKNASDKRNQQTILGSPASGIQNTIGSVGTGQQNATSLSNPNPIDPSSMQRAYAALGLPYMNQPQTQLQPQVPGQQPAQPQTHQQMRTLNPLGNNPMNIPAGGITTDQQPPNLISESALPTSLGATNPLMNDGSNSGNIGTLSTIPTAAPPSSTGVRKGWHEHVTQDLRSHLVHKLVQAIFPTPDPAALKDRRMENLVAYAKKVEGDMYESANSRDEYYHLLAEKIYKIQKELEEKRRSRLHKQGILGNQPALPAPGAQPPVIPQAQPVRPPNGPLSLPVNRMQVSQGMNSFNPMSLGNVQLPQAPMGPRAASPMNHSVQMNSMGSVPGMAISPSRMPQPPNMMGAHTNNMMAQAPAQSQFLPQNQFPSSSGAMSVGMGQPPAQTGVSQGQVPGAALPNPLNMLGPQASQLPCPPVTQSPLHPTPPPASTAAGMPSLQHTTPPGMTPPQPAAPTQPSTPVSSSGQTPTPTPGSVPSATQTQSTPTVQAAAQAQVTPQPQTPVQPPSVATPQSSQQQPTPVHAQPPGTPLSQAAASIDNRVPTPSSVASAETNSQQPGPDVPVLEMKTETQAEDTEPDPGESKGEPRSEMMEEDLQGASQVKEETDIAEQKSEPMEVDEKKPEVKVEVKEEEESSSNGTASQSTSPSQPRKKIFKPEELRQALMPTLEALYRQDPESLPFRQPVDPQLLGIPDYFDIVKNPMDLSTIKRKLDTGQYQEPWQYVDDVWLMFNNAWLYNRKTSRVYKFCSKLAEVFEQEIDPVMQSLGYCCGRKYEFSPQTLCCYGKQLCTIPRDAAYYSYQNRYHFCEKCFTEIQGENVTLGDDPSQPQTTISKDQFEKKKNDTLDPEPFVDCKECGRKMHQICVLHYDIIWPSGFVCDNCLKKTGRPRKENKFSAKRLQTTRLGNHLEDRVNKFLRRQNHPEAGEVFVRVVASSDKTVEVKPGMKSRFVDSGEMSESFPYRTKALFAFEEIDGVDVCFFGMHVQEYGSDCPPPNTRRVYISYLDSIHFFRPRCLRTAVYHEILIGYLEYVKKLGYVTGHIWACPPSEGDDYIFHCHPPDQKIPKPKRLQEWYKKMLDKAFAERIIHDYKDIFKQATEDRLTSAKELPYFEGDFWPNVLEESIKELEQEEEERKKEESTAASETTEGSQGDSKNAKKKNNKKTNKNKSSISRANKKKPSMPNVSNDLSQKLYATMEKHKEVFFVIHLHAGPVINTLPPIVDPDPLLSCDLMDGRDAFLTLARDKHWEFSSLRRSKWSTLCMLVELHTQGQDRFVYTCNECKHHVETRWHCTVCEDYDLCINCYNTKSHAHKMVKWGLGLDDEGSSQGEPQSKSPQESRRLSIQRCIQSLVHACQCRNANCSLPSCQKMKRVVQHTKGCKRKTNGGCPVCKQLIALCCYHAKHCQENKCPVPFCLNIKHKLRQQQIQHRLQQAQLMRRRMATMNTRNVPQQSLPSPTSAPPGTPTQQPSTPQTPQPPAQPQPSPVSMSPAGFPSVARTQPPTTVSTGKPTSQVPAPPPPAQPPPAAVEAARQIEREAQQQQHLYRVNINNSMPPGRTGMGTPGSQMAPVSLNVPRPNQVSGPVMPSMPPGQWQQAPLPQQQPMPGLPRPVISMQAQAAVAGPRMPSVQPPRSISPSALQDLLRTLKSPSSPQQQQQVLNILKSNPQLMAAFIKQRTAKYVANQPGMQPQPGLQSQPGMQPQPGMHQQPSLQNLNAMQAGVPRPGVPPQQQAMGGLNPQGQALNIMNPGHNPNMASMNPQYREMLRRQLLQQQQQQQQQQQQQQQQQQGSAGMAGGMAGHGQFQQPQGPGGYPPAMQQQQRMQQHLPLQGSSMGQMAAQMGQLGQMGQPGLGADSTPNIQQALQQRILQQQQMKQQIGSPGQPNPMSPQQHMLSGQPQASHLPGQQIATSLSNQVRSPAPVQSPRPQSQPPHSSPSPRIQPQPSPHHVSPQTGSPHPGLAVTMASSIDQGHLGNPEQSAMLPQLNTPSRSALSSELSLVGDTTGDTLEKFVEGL
UniProt Q09472: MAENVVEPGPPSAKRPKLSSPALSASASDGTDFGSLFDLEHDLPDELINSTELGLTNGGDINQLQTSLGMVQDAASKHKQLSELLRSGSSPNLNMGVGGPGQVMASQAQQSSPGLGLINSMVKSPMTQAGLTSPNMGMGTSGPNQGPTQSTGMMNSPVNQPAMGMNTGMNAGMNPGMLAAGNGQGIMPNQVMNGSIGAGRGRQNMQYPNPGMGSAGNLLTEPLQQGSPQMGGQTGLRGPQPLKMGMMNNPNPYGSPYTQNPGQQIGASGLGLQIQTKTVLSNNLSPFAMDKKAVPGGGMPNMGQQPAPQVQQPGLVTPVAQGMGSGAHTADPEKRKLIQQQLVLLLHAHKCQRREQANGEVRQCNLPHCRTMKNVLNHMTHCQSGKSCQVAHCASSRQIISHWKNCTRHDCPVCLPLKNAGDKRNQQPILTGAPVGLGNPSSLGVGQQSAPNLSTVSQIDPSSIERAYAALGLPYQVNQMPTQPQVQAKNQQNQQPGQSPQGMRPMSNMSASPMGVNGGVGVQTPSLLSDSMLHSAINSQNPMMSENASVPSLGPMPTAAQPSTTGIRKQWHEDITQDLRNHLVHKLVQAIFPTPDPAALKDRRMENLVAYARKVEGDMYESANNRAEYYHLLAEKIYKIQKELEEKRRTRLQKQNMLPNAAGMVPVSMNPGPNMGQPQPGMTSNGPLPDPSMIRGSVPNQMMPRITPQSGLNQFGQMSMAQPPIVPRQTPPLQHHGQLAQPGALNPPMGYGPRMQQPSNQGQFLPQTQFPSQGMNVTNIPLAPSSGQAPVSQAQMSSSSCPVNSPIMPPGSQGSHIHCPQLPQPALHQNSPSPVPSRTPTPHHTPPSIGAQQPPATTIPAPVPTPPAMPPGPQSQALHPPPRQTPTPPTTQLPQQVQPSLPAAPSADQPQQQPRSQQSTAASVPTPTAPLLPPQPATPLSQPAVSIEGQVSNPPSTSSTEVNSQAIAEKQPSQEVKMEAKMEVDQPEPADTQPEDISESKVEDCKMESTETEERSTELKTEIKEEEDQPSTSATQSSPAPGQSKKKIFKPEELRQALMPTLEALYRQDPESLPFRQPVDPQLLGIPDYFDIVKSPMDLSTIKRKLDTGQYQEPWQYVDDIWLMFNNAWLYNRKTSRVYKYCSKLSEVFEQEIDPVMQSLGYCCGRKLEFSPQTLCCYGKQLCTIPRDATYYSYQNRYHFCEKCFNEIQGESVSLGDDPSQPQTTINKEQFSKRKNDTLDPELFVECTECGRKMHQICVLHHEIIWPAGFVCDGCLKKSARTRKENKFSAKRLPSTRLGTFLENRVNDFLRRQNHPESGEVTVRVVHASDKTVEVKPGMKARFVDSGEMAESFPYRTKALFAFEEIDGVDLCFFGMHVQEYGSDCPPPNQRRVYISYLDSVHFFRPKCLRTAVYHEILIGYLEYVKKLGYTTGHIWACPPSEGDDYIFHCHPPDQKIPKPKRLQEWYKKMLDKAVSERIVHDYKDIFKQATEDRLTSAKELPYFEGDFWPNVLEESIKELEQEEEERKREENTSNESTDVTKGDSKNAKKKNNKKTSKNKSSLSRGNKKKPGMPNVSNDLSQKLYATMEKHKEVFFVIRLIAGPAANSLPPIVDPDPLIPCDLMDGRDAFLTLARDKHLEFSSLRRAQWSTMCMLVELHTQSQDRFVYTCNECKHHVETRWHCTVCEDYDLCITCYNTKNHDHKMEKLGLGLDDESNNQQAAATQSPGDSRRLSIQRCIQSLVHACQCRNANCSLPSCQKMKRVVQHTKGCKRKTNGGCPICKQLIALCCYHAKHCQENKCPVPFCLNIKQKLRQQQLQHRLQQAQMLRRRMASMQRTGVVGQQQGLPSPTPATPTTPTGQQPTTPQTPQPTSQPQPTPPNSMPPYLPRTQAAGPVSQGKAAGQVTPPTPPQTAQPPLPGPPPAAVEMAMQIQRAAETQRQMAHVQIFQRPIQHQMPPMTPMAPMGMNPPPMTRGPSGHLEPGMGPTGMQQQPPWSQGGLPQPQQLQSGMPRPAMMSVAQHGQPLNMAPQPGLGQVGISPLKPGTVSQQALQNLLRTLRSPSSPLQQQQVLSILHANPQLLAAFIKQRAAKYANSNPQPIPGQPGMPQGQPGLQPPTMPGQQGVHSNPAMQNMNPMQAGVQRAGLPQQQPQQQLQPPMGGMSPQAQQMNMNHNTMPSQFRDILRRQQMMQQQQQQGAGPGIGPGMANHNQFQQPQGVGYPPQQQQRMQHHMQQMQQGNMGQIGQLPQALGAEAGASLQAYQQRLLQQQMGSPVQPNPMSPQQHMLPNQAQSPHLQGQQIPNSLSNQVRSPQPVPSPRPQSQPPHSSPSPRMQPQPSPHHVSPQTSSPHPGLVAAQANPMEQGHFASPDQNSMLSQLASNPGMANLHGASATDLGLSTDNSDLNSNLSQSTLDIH

Target: T1, Special AT-rich Binding Protein-2 (SATB2) (human (endogenous in GSCs)) (UniProt Q9UPW6)
T1 sequence: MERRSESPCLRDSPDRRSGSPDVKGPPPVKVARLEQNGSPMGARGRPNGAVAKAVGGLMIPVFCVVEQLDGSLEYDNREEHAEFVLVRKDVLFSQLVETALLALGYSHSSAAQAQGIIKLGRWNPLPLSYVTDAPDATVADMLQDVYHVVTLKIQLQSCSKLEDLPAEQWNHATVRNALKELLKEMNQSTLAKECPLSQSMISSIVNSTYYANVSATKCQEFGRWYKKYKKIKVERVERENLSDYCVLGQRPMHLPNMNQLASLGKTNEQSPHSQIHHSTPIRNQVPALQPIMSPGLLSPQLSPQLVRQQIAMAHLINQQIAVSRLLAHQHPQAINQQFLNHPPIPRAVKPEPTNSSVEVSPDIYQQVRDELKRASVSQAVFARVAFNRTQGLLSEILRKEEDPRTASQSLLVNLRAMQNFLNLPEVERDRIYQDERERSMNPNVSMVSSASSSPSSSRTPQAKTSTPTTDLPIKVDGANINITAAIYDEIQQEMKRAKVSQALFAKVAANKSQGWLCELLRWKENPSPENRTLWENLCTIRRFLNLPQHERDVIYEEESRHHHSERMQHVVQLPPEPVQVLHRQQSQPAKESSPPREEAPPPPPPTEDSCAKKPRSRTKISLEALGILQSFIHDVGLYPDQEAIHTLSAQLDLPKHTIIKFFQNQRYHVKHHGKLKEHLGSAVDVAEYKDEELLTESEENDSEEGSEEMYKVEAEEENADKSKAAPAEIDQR
Test: co-IP; endogenous proteins in GSC lysates (IP lysis buffer); primary antibody and protein A/G Plus agarose beads overnight at 4°C; immunoblot of the precipitates

| Substance | binding |
| --- | --- |
| histone acetyltransferase CBP (from UniProt Q92793 1-2442) | binds |
| histone acetyltransferase P300 (from UniProt Q09472 1-2414) | no binding |
